Measurements from article PMC10390781.

Chains of the proteins cited; added tags and fusions are not shown.
UniProt Q9UKT9: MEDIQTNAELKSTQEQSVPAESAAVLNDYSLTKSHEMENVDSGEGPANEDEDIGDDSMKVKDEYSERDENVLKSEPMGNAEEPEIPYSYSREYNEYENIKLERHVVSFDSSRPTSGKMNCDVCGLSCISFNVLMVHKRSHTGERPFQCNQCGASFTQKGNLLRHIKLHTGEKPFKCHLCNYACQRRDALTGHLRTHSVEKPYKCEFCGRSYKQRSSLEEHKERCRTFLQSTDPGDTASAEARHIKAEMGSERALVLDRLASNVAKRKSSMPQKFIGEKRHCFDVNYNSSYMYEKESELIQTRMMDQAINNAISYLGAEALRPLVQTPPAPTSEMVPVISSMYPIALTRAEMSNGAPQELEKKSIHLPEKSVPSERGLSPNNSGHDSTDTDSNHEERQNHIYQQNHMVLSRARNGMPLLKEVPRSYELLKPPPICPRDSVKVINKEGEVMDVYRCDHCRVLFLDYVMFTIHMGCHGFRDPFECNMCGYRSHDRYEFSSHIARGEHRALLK

B1: IRF4 transcription factor (protein, UniProt Q15306 1-451)
chain: MNLEGGGRGGEFGMSAVSCGNGKLRQWLIDQIDSGKYPGLVWENEEKSIFRIPWKHAGKQDYNREEDAALFKAWALFKGKFREGIDKPDPPTWKTRLRCALNKSNDFEELVERSQLDISDPYKVYRIVPEGAKKGAKQLTLEDPQMSMSHPYTMTTPYPSLPAQQVHNYMMPPLDRSWRDYVPDQPHPEIPYQCPMTFGPRGHHWQGPACENGCQVTGTFYACAPPESQAPGVPTEPSIRSAEALAFSDCRLHICLYYREILVKELTTSSPEGCRISHGHTYDASNLDQVLFPYPEDNGQRKNIEKLLSHLERGVVLWMAPDGLYAKRLCQSRIYWDGPLALCNDRPNKLERDQTCKLFDTQQFLSELQAFAHHGRSLPRFQVTLCFGEEFPDPQRQRKLITAHVEPLLARQLYYFAQQNSGHFLRGYDLPEHISNPEDYHRSIRHSSIQE

Molecular target: glucocorticoid receptor (human (endogenous in MM.1S)) (UniProt P04150)
Experiment: affinity purification with mass spectrometry; RIME (rapid immunoprecipitation mass spectrometry of endogenous protein) by Active Motif; MM.1S cells exposed to Dex 0.1 uM for 1 h and fixed; GR (H-300) antibody, GR as bait; proteins found in the IgG negative control and with spectral count < …; proteins identified in both replicates

| Molecule | binding |
| --- | --- |
| IKZF1 (from UniProt Q13422 1-519) | binds |
| IKZF3 (from UniProt Q9UKT9 1-509) | binds |
| B1 | binds |

Results are given in words; binding and its absence hold for the method and conditions named. In cells and extracts the contact can be indirect. Here binding means that the protein was enriched with, or labelled near, the bait; the list need not be complete.
